PubChem BioAssay AID743456, Peter MacCallum Cancer Centre | 2014
In all, the deposit lists 878 reagents; shown is a random part of them. Of all reagents, 27 (3.1%) are marked active. 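27 mimics are marked active, unlike an earlier stated count of 24; the viability threshold is described inconsistently.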 Unmarked entries are inactive. Further read-outs or replicates are left out here. Not stated in the record: the amount of reagent.

- Assay: 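miRNA mimics altering how resistant colon cancer cells respond to vorinostat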 (primary screen)
- System: human HCT116-VR colon cancer cells, a vorinostat-resistant HCT116 line
- Reagent: miRNA mimic
- Duration: about 3 days from transfection to readout; drug present for the last 24 h
- Challenge: vorinostat at 2.5 µM final for 24 h
- Detection: 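Per-well live-cell protease fluorescence and caspase luminescence under 2.5 µM vorinostat for 24 h, scored as robust z-scores and against mock transfection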
- Reading the numbers: viability robust z-score: higher = more viable cells; caspase robust z-score: higher = more caspase activity, more apoptosis
- Active means: 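Active when viability drops or caspase activity climbs beyond robust z thresholds, with wells of poor cell health excluded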

For hsa-miR-1276, the values are viability robust z-score -0.12; caspase robust z-score -0.15; viability hit class no change; caspase hit class no change.
hsa-miR-139-3p gave viability robust z-score 1.74; caspase robust z-score 0.9; viability hit class no change; caspase hit class no change.
hsa-miR-429 gave viability robust z-score 1.41; caspase robust z-score -0.46; viability hit class no change; caspase hit class no change.
hsa-miR-654-5p gave viability robust z-score -2.57; caspase robust z-score 1.75; viability hit class no change; caspase hit class no change.
For hsa-miR-361-5p the deposit lists viability robust z-score 0.83; caspase robust z-score -0.62; viability hit class no change; caspase hit class no change.
hsa-miR-1236 showed viability robust z-score -2.67; caspase robust z-score 1.16; viability hit class no change; caspase hit class no change.
For hsa-miR-30d, the values are viability robust z-score 1.19; caspase robust z-score -0.51; viability hit class no change; caspase hit class no change.

Only “caspase robust z-score”, for 2 of the entries above:
hsa-miR-1236: 1.16
hsa-miR-30d: -0.51

Further reagents:
hsa-miR-324-3p showed viability robust z-score 0.82; caspase robust z-score 0.05; viability hit class no change; caspase hit class no change.
hsa-miR-143 showed viability robust z-score 0.74; caspase robust z-score -0.22; viability hit class no change; caspase hit class no change.
hsa-miR-1973 gave viability robust z-score 0.1; caspase robust z-score -0.56; viability hit class no change; caspase hit class no change.
With hsa-miR-145, the entry reads viability robust z-score -0.82; caspase robust z-score -1.17; viability hit class no change; caspase hit class no change.
hsa-miR-939 showed viability robust z-score -0.48; caspase robust z-score 0.18; viability hit class no change; caspase hit class no change.
hsa-miR-154 gave viability robust z-score -1.36; caspase robust z-score 2.75; viability hit class no change; caspase hit class no change.
For hsa-miR-521, the entry reads viability robust z-score 0.58; caspase robust z-score -0.7; viability hit class no change; caspase hit class no change.
hsa-miR-1229 showed viability robust z-score 0.47; caspase robust z-score -0.32; viability hit class no change; caspase hit class no change.
With hsa-miR-27b the deposit lists viability robust z-score -2.04; caspase robust z-score -0.1; viability hit class no change; caspase hit class no change.
For hsa-miR-379, the values are viability robust z-score -0.48; caspase robust z-score -0.46; viability hit class no change; caspase hit class no change.
For hsa-miR-548h the deposit lists viability robust z-score 1.23; caspase robust z-score 0.28; viability hit class no change; caspase hit class no change.
